Test results published in patent publication US20250179088A9 (ZYMEWORKS BC INC., priority 2020, published 2025).
The structures given here were assigned with low confidence; some may be wrong.

Chains of the proteins cited; added tags and fusions are not shown. Residues count along the entry.
UniProt Q9NR97, 27-1041 limits assumed: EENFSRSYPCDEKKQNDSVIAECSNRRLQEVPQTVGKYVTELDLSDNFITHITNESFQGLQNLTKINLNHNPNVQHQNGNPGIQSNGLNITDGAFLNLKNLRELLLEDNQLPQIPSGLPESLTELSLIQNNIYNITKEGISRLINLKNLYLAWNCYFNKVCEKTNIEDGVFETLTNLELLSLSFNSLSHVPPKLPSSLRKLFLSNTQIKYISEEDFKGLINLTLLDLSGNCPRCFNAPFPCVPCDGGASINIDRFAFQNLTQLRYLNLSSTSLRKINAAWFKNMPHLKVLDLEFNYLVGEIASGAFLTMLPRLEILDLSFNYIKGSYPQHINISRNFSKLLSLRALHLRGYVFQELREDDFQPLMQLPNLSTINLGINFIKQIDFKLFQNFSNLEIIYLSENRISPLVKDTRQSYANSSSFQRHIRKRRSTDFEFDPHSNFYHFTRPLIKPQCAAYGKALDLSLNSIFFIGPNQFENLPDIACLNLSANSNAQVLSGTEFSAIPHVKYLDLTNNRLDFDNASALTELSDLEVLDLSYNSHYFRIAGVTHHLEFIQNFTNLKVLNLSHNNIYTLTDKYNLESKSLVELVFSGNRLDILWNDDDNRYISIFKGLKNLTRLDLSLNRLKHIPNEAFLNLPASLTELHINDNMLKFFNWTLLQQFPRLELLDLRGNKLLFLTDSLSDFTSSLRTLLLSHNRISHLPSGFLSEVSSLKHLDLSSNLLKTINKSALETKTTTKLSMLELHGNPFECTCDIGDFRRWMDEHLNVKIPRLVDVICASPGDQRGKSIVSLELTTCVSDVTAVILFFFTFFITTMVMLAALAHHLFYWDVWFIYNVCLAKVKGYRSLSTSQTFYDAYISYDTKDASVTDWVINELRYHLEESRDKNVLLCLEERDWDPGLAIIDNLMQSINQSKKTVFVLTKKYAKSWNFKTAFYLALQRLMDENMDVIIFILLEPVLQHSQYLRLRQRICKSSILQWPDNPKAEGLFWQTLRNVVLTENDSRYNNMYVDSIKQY
UniProt Q9NYK1, 27-1049 limits assumed: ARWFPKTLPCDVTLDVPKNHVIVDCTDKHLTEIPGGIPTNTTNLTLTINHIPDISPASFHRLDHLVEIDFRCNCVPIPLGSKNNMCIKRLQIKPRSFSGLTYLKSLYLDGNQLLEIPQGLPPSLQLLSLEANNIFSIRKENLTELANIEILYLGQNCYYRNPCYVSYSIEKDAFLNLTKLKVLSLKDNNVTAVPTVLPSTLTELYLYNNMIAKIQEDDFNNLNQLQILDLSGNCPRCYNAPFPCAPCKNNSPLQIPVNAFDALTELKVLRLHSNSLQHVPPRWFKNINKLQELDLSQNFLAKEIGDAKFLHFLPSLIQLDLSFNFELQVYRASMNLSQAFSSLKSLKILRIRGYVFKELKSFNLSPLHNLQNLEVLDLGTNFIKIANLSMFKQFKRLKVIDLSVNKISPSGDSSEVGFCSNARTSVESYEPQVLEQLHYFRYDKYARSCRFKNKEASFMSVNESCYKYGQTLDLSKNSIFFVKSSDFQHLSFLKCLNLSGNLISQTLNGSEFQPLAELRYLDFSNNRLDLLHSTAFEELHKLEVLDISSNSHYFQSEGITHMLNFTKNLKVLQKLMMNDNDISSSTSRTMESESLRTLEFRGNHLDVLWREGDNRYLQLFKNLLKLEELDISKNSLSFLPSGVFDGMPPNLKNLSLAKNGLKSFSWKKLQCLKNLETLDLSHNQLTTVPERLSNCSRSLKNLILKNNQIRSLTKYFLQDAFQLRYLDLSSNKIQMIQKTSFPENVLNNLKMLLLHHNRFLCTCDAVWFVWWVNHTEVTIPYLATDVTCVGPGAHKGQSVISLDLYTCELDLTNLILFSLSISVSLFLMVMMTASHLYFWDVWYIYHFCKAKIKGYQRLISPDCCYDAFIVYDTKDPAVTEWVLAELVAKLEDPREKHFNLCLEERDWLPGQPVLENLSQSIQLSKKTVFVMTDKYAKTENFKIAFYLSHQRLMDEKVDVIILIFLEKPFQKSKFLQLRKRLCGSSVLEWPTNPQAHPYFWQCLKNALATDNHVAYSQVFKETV

How the values were obtained:
TLR8 = TLR8 (Homo sapiens, UniProt Q9NR97); assay: Reporter gene assay, HEK-Blue TLR8 reporter cells (SEAP); conditions: read-out: EC50 TLR8, overnight, NF-κB activation measured by SEAP, average of quadruplicate
TLR7 = TLR7 (Homo sapiens, UniProt Q9NYK1); assay: Reporter gene assay, HEK-Blue TLR7 reporter cells (SEAP); conditions: read-out: EC50 TLR7, overnight, NF-κB activation measured by SEAP, average of quadruplicate
PBMCs = assay: PBMC assay, IL-6 release (HTRF); assay type: cell-based; conditions: read-out: EC50 IL-6; PBMCs from healthy donors, overnight, IL-6 induction by HTRF; average of quadruplicate

SMILES: CCCCc1nc2c(N)nc3ccsc3c2n1Cc1nc(CN2CCC(c3ccncc3)CC2)cs1
- EC50 (TLR8): > 1000 nM
- EC50 (TLR7): 260 nM
- EC50 (PBMCs): > 1000 nM
